Measured values: PubChem BioAssay AID504444 (National Center for Advancing Translational Sciences (NCATS), 2011)
The campaign covered roughly 360,000 compounds. About 7,500 (2.1%) were called active. Inconclusive results, whose numbers are uncertain, are shown with a selection of clear calls. Calls come from the whole dose curve; as a rule, active = well fitted inhibition curve with a large enough effect; inconclusive = small, poorly fitted or top-dose-only effect, or effect the other way; inactive = flat fitted curve, though single readings scatter. Where the call is inconclusive, the potency comes from a doubtful curve fit.

Assay: Nrf2 qHTS screen for inhibitors; note: nearly all actives have a fitted effect of over 60% in size
Settings: A549 ARE-Fluc reporter, luciferase luminescence, 18-24 h; activity change, negative = inhibition: at 46 µM (top of the series)
In short: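 In this cell-based qHTS, ARE-driven firefly luciferase in A549 cells reports Nrf2 activity; the luminescent signal after BugLite lysis is the measured value, with a prior CellTiter-Fluor read for cell health.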
% is set by controls: 0 for no effect and ±100 for the full control effect; potency is the fitted concentration of half-maximal effect.

Compound | Potency | activity change, negative = inhibition
O=C(CN1CCN(S(=O)(=O)c2ccc(Cl)cc2)CC1)NC(=O)NC1CCCCC1 | inconclusive: 13 µM [falling, partial curve, poor fit] | –
O=c1c(C=NCCCn2ccnc2)c(-c2ccccc2)[nH]n1-c1nc2ccccc2s1 | inconclusive: 18.4 µM [activator, single point] | –
COc1ccc(-c2cn3cc(C)ccc3n2)cc1F | inconclusive: 7.31 µM [falling, partial curve, poor fit] | –
Cc1sc2ncnc(NCCc3ccc(S(N)(=O)=O)cc3)c2c1C | active: 2.31 µM | –
Nc1ccc(C(=O)OCC(=O)N2c3ccccc3Sc3ccccc32)cc1[N+](=O)[O-] | inconclusive: 20.6 µM [falling, single point] | –
COc1ccc(C(=O)N[C@H](C(=O)NCCc2ccc3c(c2)OCCO3)C(C)C)cc1 | inactive | –
Cc1ccc(NCc2nnc(SCC(=O)N3CCCCC3)n2CC2CCCO2)c(C)c1 (configuration not stated) | inconclusive: 4.61 µM [falling, full curve, poor fit] | –
COc1ccc(NC(=O)c2c(C)nn(-c3ccccc3)c2Cl)cc1 | inconclusive: 25.9 µM [activator, single point] | –
CCCc1cc(=O)oc2cc(OCC(=O)NCCc3c[nH]c4ccccc34)ccc12 | inconclusive: 20.6 µM [falling, single point] | –
CCOc1ccc(NC(=O)CSc2oc(-c3ccco3)nc2S(=O)(=O)c2ccccc2)cc1 | – | inactive: 5.09% [at 9.27 µM]
CC(=O)Nc1cccc(C(=O)OCC(=O)N2CCC(c3ccccc3)=N2)c1 | inactive | –
COc1ccc(-c2cn3c(C)c(C(=O)Nc4ccncc4)sc3n2)cc1 | inconclusive: 29.1 µM [falling, single point] | –
Cc1cc(C)nc(SCC(=O)c2ccc3c(c2)OCCO3)n1 | inconclusive: 13 µM [falling, partial curve, poor fit] | –
COc1ccc(NCC(=O)Nc2cccc(C(F)(F)F)c2)cc1S(=O)(=O)N1CCOCC1 | inconclusive: 18.4 µM [falling, single point] | –
COc1cc(NC(=O)CN2CCCN(Cc3cccc(F)c3)S2(=O)=O)cc(OC)c1 | inconclusive: 9.2 µM [falling, partial curve, poor fit] | –
COC(=O)Nc1cc(C(F)(F)F)ccc1N1CCN(c2ccccc2)CC1 | inconclusive: 4.11 µM [falling, full curve, poor fit] | –
S=C(Nc1ccccc1)Nc1nc2ccccc2n1CCOc1ccc(Br)cc1 | inactive | –
O=C1NC2(O)C(=O)c3ccccc3C2(O)N1 (configuration not stated) | inconclusive: 6.51 µM [activator, full curve, poor fit] | –
CNC(=S)N/N=C/c1c(C)c(C(=O)c2ccc(F)cc2)n2ccccc12 | inactive | –
COc1c(C=O)c2c(c(OC)c1OC)-c1ccc(OC)c(=O)cc1C(NC(C)=O)CC2 (configuration not stated) | inconclusive: 4.61 µM [activator, partial curve, poor fit] | –
CCCCN(CCCC)S(=O)(=O)c1ccc(NC(=O)Cc2cccs2)cc1 | inconclusive: 25.9 µM [falling, single point] | –

Compound | Potency | activity change, negative = inhibition
Cc1ccc(OCC(=O)O/N=C(\N)c2ccccn2)cc1C | inconclusive: 3.66 µM [activator, full curve] | –
C=CCNc1ncnc2c1cnn2-c1ccc(Cl)cc1 | inconclusive: 2.06 µM [activator, full curve] | –
CCCc1cc(N2CCN(c3ccccc3F)CC2)n2cnnc2n1 | active: 16.4 µM | –
Cc1c(C)n(Cc2ccccc2)c2ccc(C(=O)N3CCN(c4ccccc4)CC3)cc12 | inconclusive: 23.1 µM [falling, partial curve, poor fit] | –
COc1ccc(C(=O)NC(c2ccccc2Cl)c2cc(Cl)c3cccnc3c2O)cc1 (configuration not stated) | active: 4.11 µM | –
Cc1csc(=O)n1CCC(=O)OCC(=O)c1c(N)n(CC(C)C)c(=O)n(C)c1=O | inconclusive: 20.6 µM [falling, partial curve, poor fit] | –
COc1ccccc1NC(=O)CSc1nc(SC)ns1 | inconclusive: 8.2 µM [activator, partial curve, poor fit] | –
CCN(CC(=O)NCc1cccs1)C(=O)c1cccc(S(=O)(=O)N(CC)c2ccccc2)c1 | inconclusive: 29.1 µM [falling, single point] | –
CCOC(=O)c1oc2c(c1C)-c1nn(Cc3cccc(Cl)c3)cc1CC2 | inconclusive: 29.1 µM [falling, single point] | –
CCc1cc(CNC(=O)c2ccc3nc(Cc4ccc(OC)c(OC)c4)oc3c2)on1 | active: 20.6 µM | –
O=c1c2ccccc2c(C=Nc2ccccc2O)c(O)n1-c1nccs1 | inconclusive: 29.1 µM [falling, single point] | –
COc1ccc(C)cc1S(=O)(=O)NC(C)C(=O)Nc1ccc2c(c1)OCO2 (configuration not stated) | inactive | –
Cc1ccc(OCC(=O)NCC(=O)OCc2cc(=O)n3nc(C(C)C)sc3n2)cc1 | inactive | –
O=C(c1cc2sccc2n1Cc1ccc(F)cc1)N1CCCc2ccccc21 | inconclusive: 20.6 µM [falling, partial curve] | –
O=C(Nc1nc2ccc(F)cc2s1)c1ccccn1 | inconclusive: 6.51 µM [activator, partial curve, poor fit] | –
Cc1c(C(=O)NCCSCc2ccccc2Cl)cccc1[N+](=O)[O-] | inconclusive: 32.6 µM [falling, single point] | –
COC(=O)Cc1ccc(NC(=O)c2ccccc2Cl)cc1 | inconclusive: 2.31 µM [falling, full curve, poor fit] | –
CCN(c1ccccc1)S(=O)(=O)c1ccc(N2CCN(c3ccccc3O)CC2)nc1 | inconclusive: 29.1 µM [falling, single point] | –
CC(C)Oc1ccc(C(=O)N(Cc2ccc(N(C)C)cc2)Cc2ccco2)cc1 | inconclusive: 29.1 µM [falling, single point] | –
CO/N=C(\c1ccccc1)c1cccnc1 | inconclusive: 29.1 µM [falling, single point] | –
O=C(Nc1cc2c(cc1C(=O)O)OCCCO2)c1ccc(F)cc1F | inconclusive: 23.1 µM [activator, single point] | –

Entries shown so far with an aryl thioether with sulfur outside any ring (4):
Compound | Potency | activity change, negative = inhibition
Cc1ccc(NCc2nnc(SCC(=O)N3CCCCC3)n2CC2CCCO2)c(C)c1 (configuration not stated) | inconclusive: 4.61 µM [falling, full curve, poor fit] | –
CCOc1ccc(NC(=O)CSc2oc(-c3ccco3)nc2S(=O)(=O)c2ccccc2)cc1 | – | inactive: 5.09% [at 9.27 µM]
Cc1cc(C)nc(SCC(=O)c2ccc3c(c2)OCCO3)n1 | inconclusive: 13 µM [falling, partial curve, poor fit] | –
COc1ccccc1NC(=O)CSc1nc(SC)ns1 | inconclusive: 8.2 µM [activator, partial curve, poor fit] | –
